Results published in PubChem BioAssay AID1508600 (Functional Genomics Laboratory (NCATS/FGL), 2020).
The whole screen tested about 53,000 sequences, of which about 3,700 (7%) were called active.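 How the source made its calls: active means gene knockdowns whose robust z-score for IL-1 alpha signal is at least 2 or at most -2, so actives lie on both sides; inactive means the rest.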 Some of the results follow.

Assay: Components of the Cytosolic LPS Sensing Pathway: Gene Identification via Genome-wide siRNA Screen;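 further: robust z of the log signal after scaling to non-targeting control siRNA wells of the plate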
Conditions: RAW264.7 macrophages, IL-1a HTRF, actives lie on both sides, screened at 100 nM (by protocol), cells primed 5 h with Pam3CSK4 first
How it was run: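 Knockdown: 100 nM siRNA, 48h, RAW264.7. Stimulation: Pam3CSK4 5 h, then LipidA via TransIT-TKO 24 h. Output: supernatant IL-1a HTRF, negative-control-normalized, log robust z-score; viability by CellTiter-Glo.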

Sequence	z-score
GGUGCUAAGCAUGAAGCCUTT against Stk16	inactive: -1.01
GCUCAUCGUACCAUUUUCUTT against Trim12c	inactive: 0.699
CCUGGGACCUAUAACUCCATT against Lexm	inactive: -0.575
GGUCAUCUGAUAAAUGAGUTT against Klhl30	inactive: -0.206
GGAAGCAGUAAGAAAUCAGTT against Clpx	inactive: 1.42
GGACAAUGAUUACGACCACTT against Cacng4	inactive: -0.917
CGACCGUUGUUAUGGGCAATT against Pla2g5	inactive: 1.93
GGAGUUUGAGACACUCUGCTT against Atg4d	inactive: 0.596
GCUGGUACUGACGAAAUGGTT against Adamts3	inactive: -0.144
GCCCAAUAACCAAAUGCCATT against Tox	inactive: -1.1
GGGACAAGACUGUAUCUUUTT against Fgf4	inactive: 0.278
GCACCUCUGACAAGGUUCUTT against Plin1	active: 2.65
GGAGUGAAGGGUCAUCCAGTT against Col9a2	active: 5.07
CCGUAAACCUAAAUUAGGATT against Dstyk	inactive: -0.371
CCUGUAUGGAGUAAUGGAATT against Eif4ebp3	inactive: 0.13
GGUAUGGAUCAAGGUUCUUTT against Gja6	active: 3.21
GCUGGAAAGCUCACAGUUATT against Faah	inactive: 1.09
GGAGAUUCAGAUCAAAGAGTT against Scyl1	inactive: -0.182
GCGCGUGUGAAAUAAACAUTT against Armh3	inactive: -1.94
GCCUAUGCCAAUUUGUGCGTT against Paqr6	inactive: 0.295
GGAAAGUAAAGUUUUCUCCTT against Vps26b	inactive: 1.01
GCUCUUGGGUUACUGGGUUTT against Olfr784	inactive: 0.477

Sequence	z-score
GGACUUGUCAUUAUUGUCCTT against Olfr397	inactive: 0.0421
GGACAGUAUGAAUUUGAAUTT against Lcp1	active: 2.44
CGCAGGUGAGAGCAAUGUUTT against Lrrn4cl	inactive: -1.35
CCCAAUAGGAGCUCAUCAUTT against Nr4a3	inactive: -1.16
GGUCGUUAUCACUCUCUAUTT against Pkd1l3	active: 3.34
GGAUGCUCAAGGAAAACAGTT against Lipk	inactive: -1.14
GCAUGAUCGUGUUUGUUUATT against Srpk2	inactive: 0.722
GGGCUCAUUGCUAAAACACTT against Sgcg	inactive: -0.221
GGAGAUUGACACCAACACCTT against Clic5	inactive: -1.7
GGUGAUGCAAGAAGAAAUUTT against Aldh3a2	inactive: 0.169
CCCACAAGUUUCAUCUGACTT against Aknaos	inactive: -0.164
GGAGAAUGCACAGUUCACUTT against Krt16	inactive: 1.7
GGAUCAACAAGGAACUGGCTT against Ap2a1	inactive: -1.25
GGAACCCUUGGUUUUUUUUTT against Oas1a	inactive: 0.387
GGAAAAGAUCUCGUGGUUGTT against Slc25a17	inactive: -0.959
GGGACAGACCUUGCCUUUGTT against Sac3d1	inactive: 0.209
GGAUGAAAAGAUUGAACUCTT against Gart	active: 3.22
GGAAACAUGGCCAUGUUUUTT against Cyp7a1	inactive: -0.115
GCACAACACGGCUAAACCUTT against Dph7	inactive: -0.911
CCUGUUGUAUUGUUUAGCGTT against Ago2	inactive: -0.402
CCAGCAAAAUCACUUAAUATT against Emb	inactive: -0.648
GGAAGAAGGCAUUGUGAAGTT against Rps6ka2	inactive: 1.42

An excerpt of these results, comma-delimited:
Sequence,z-score
GGGACAAGACUGUAUCUUUTT against Fgf4,inactive: 0.278
GGAGUGAAGGGUCAUCCAGTT against Col9a2,active: 5.07
CCGUAAACCUAAAUUAGGATT against Dstyk,inactive: -0.371
CCUGUAUGGAGUAAUGGAATT against Eif4ebp3,inactive: 0.13
GGUAUGGAUCAAGGUUCUUTT against Gja6,active: 3.21
GCUGGAAAGCUCACAGUUATT against Faah,inactive: 1.09
GGAGAUUCAGAUCAAAGAGTT against Scyl1,inactive: -0.182
GCCUAUGCCAAUUUGUGCGTT against Paqr6,inactive: 0.295
GGAAAGUAAAGUUUUCUCCTT against Vps26b,inactive: 1.01
GCUCUUGGGUUACUGGGUUTT against Olfr784,inactive: 0.477
GGACUUGUCAUUAUUGUCCTT against Olfr397,inactive: 0.0421
GGACAGUAUGAAUUUGAAUTT against Lcp1,active: 2.44
CCCAAUAGGAGCUCAUCAUTT against Nr4a3,inactive: -1.16
GGUCGUUAUCACUCUCUAUTT against Pkd1l3,active: 3.34
GGAUGCUCAAGGAAAACAGTT against Lipk,inactive: -1.14
GCAUGAUCGUGUUUGUUUATT against Srpk2,inactive: 0.722
GGGCUCAUUGCUAAAACACTT against Sgcg,inactive: -0.221
GGAGAUUGACACCAACACCTT against Clic5,inactive: -1.7
GGUGAUGCAAGAAGAAAUUTT against Aldh3a2,inactive: 0.169
CCCACAAGUUUCAUCUGACTT against Aknaos,inactive: -0.164
GGAGAAUGCACAGUUCACUTT against Krt16,inactive: 1.7
GGAUCAACAAGGAACUGGCTT against Ap2a1,inactive: -1.25
GGAACCCUUGGUUUUUUUUTT against Oas1a,inactive: 0.387
GGAAAAGAUCUCGUGGUUGTT against Slc25a17,inactive: -0.959
GGGACAGACCUUGCCUUUGTT against Sac3d1,inactive: 0.209
GGAUGAAAAGAUUGAACUCTT against Gart,active: 3.22
GGAAACAUGGCCAUGUUUUTT against Cyp7a1,inactive: -0.115
GCACAACACGGCUAAACCUTT against Dph7,inactive: -0.911
CCUGUUGUAUUGUUUAGCGTT against Ago2,inactive: -0.402
CCAGCAAAAUCACUUAAUATT against Emb,inactive: -0.648
GGAAGAAGGCAUUGUGAAGTT against Rps6ka2,inactive: 1.42

The list goes on:

Sequence	z-score
CCUCCACCGAAAUAAUUAATT against Dnajb3	inactive: 0.655
GCCUUUGUGAGGAUUAAACTT against Fam83f	inactive: -0.000611
CCAUGCGGCUUGUAAUAUGTT against AU022252	inactive: 0.279
GGAUACGUUACUCCAGUCATT against Ctsk	inactive: -0.647
GGGACAGAAAGGAAAGACUTT against Ndufb4	inactive: 0.0331
GGCUGUCGAGUAUAAAUCUTT against Stfa3	inactive: -0.564
CCCGUCAAUACCACUUACCTT against Sidt2	active: 2.19
GGACGAAUGUCACAAUUUUTT against Sema4f	inactive: 0.167
GCCAUCAUCCAGCUAUGACTT against Olfr360	inactive: -0.782
GCCCAAAAAGUGCUUGCUGTT against Tmem215	inactive: -1.76
GCUCCGUCAGACAAAGAAGTT against Apex1	inactive: 0.0609
GAUCAAAGAUCAUGUGGCCTT against Fau	inactive: -0.541
GGGUUUAUGUAAGUUUCCUTT against Nelfcd	inactive: -1.47
GGAAUGAGAAGUUCUAUGATT against Chrna7	inactive: 0.282
GGGCCAUUUUAGGUCCUUUTT against Rbm7	inactive: 0.112
GGAUUUGCAUAUGUUCAAUTT against Srsf10	inactive: -0.0373
GGAACAGUCUGAAAUACACTT against Usp18	inactive: -0.907
GGUGCUGCUUUAUUCCUGGTT against Dhcr7	inactive: -0.632
GGAAAUGAAGCAUCUGUAUTT against Txnip	active: -2.3
GGACAAGCAAGGUCAAUCATT against Taar1	inactive: -1.11
CCUCUUCAGAAGCUCUCCUTT against Olfr1320	inactive: -1.11
GCUCCUUAAACAGUAAUCATT against Adipor2	inactive: 1.9

Sequence	z-score
GGCUGAACAAGAGAAACCATT against Ppdpf	active: -2.49
CCGCGUGACCAACUUUGUGTT against Tab1	inactive: -0.981
GGAUAGCAUGCUUCCUGAGTT against Rhbdf2	active: -2.19
GGAUGAAAUCAAAAUGGAUTT against Zfp622	inactive: 0.45
GGCCUUCACUACGAGGGAATT against Pfkl	inactive: 0.523
GGAUCAAGGAGGAUUUCAATT against Tprg	active: 2.38
GGCGAUGAAGAAGUAAUUUTT against Appl2	inactive: -1.2
GCCGAUAUGAGGAUAGCGATT against Cckar	inactive: 0.718
GACACUGAACAACGACAUUTT against Prss3	inactive: -0.578
GGUCUUCUUUGUGUUCGCUTT against Olfr283	inactive: -0.0406
AGUUAGCCUUGAGGAGAAUTT against Olfr1512	inactive: 0.503
GGUCAUCUGUGUUUACACGTT against AI837181	inactive: 1.5
CGGAUCUUGUCAAUAACCATT against Angptl1	inactive: 0.295
CCUGCGUAGAAAGAUGAUGTT against Tekt2	inactive: 0.0498
GGAGUAUUUCUACACCAGCTT against Ccl5	inactive: -0.62
GGACCCAAGCCUAAAACCUTT against Cbx8	inactive: -0.637
CGGGUCCUUUUCCACUACATT against Rptor	inactive: 0.942
CGCAAACAGGAUUGUUCUATT against Lgals3	inactive: 0.158
GGAAAUAGAAACCUCAAGUTT against Sipa1l1	inactive: -0.481
GGCCACUUGUGGACAGUUUTT against Rassf7	inactive: 0.24
GAUUGUGCCUUAUCUCUAATT against Vmn1r203	inactive: 1.28
GCCUCAUCCCUAUAGUCCUTT against Spaca9	inactive: -0.257

Sequence	z-score
GGUGUUUGAAUGGAAGGACTT against Idua	inactive: 0.33
CGUUCUCGUUCUGUUUAUUTT against Ctps2	inactive: 0.3
GCUGCCUUUAAUGUGGCAATT against Tcl1	inactive: -0.85
CCAAUUUGGCUUCACUUCCTT against Fpr3	inactive: 1.59
GGAAGACCUAAACAACGGCTT against Dusp10	inactive: -1.55
CCAUUCCUGUCCCUUAAUATT against Pip4p1	inactive: -0.237
GGAUUCUCAUCUGUCAUAATT against Slc26a3	inactive: 0.141
CGCUAACUGGAAAGAAACUTT against Dusp19	inactive: 0.43
GCAUCAAUGGGCUAUUGAUTT against Cep70	inactive: 0.414
GCAUGCAGUAAUUGAAAUCTT against Mdc1	inactive: -0.198
CCAAUCUUCUCCUCAAGACTT against Olfr101	inactive: -0.0712
GCCAUAACCUACAUUGUCATT against Loxhd1	active: -2.86
GCUGCUGCUAUAUAUUGAATT against Wsb1	inactive: 1.01
GGAGUAUAAAAAGUUCAGATT against Ell3	inactive: 0.222
GCCGAUUUUAUCUUUGUCATT against Dpysl5	inactive: -0.422
GCUUCAUUUGUGCCUCUAUTT against Rptor	inactive: 1.05
GGUUAAGUGUGUUAAGUUCTT against Cipc	inactive: 1.48
GGAUGCAGCUAACAAUUACTT against Tuba8	inactive: 1.05
GCAGAUUGAUUAUACGGUATT against Tmem106b	inactive: 0.239
GGUCCUUAAUGAGCCUGGATT against Ankrd34c	inactive: -0.929
